Paper doi:10.1101/2022.04.29.490116

Columns and labels:
[1] = target: T1, StbA (Escherichia coli plasmid R388) (UniProt Q6I6C4); test: EMSA
T1 sequence (looked up, limits assumed): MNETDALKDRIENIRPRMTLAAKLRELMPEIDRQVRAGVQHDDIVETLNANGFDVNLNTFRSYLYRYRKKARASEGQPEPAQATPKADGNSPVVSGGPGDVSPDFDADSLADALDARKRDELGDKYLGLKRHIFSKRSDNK

[2] = target: T2, StbA1-75 (Escherichia coli plasmid R388) (UniProt Q6I6C4); test: EMSA; conditions: no discrete stable complex at 0.5-4 uM, slow complex at 8 uM; residues 1-75
T2 sequence (looked up): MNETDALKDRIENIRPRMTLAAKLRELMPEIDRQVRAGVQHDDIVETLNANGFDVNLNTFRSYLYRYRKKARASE

| Sequence | binding result ([1]; smear as with stb1) | binding result ([1]; smear, specific but unstable) | binding result [2] |
| --- | --- | --- | --- |
| CTTGCTTGCTGCATCATTTCCCTCTTGCAAGCCCGGTTTCCGTCCGTTTTAGCTCATTTTCTGCATCATCCCAATGCCGA (double strand) [stb2' (stb2b)] | binds more weakly | – | – |
| CCGTTCTAGCTCATTCTGTTCTTGCTTGCTGCATCATCATAGTTGCAACCCAATGCCGATCTAGCTCATTACTGTTCTAT (double strand) [stb1] | – | binds more weakly | binds more weakly |

A weaker result is weaker than the reference pair of the same experiment. Protein sequences can lack the tags named with them. For part of these data: Construct, isoform or probe ends are uncertain for at least one entry.
